Calls of active or inactive are those of the source.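 How the source made its calls: active means caspase luminescence falls with dose and the half-maximal concentration AC50 from the fitted curve is at or below a set limit; inconclusive means flat fit at 30 to 70% signal loss, or invalid fit; inactive means AC50 above the limit, or signal rises instead.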

The assay concerns INS-1E cytokine-induced caspase-3/7, Caspase-Glo luminescence, 48 h. Briefly: inhibitors of cytokine-induced caspase-3/7 activity, dose response, orthogonal assay for beta-cell apoptosis protection project, INS-1E rat cells, luminescence (AID 463206).

For orientation: AC50 means the midpoint of the concentration-response curve, whichever way the signal moves. `COc1ccccc1C(=O)NNC(=S)NC(=O)c1ccco1`: the AC50 was inactive: > 26 µM.

The values above are taken from PubChem BioAssay AID463206 (Broad Institute, 2010).
